# In all, about 1,000 compounds went through this assay and about 710 (71%) were called active. So high a share suggests a set chosen from earlier hits. The inconclusive results got no clear call from the source; some entries with a clear call stand among them for comparison.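 Rule for the calls: active = inhibition of receptor movement into the nucleus at or above a set limit in both runs, with normal cell brightness and cell count; inconclusive = limit reached in only one run, brightness and count normal; inactive = the rest.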
# Assay: blockers of dexamethasone-driven GR-EGFP nuclear import – imaging, high-content imaging, GR-EGFP cells, confirmation (AID 463116);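 note: dexamethasone at 1 µM final in well for 30 min; nuclear minus cytoplasmic GR-EGFP mean intensity difference in channel 2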
# Details: 3617.4 GR-EGFP nuclear translocation imaging, dexamethasone-induced; at 20 µM; hits give high values
row,SMILES,inhibition
1,N#CC(C#N)=Cc1ccc(C=C(C#N)C#N)cc1,inconclusive: 52%
2,C/C(=C\c1ccc(N(C)C)cc1)[N+](=O)[O-],active: 71.4%
3,CC(=O)OC(C)(C)/C=C/C(=O)[C@](C)(O)[C@H]1[C@H](O)C[C@@]2(C)[C@@H]3CC=C4[C@H](C[C@H](O)C(=O)C4(C)C)[C@]3(C)C(=O)C[C@]12C,inconclusive: 51%
4,CCN(CC)c1ccc(C=C2C(=O)NC(=S)NC2=O)cc1,inconclusive: 51.6%
5,CNc1cc(Cl)c2nonc2c1[N+](=O)[O-],inconclusive: 47.1%
6,O=C1NC(=O)N(Cc2ccco2)C(=O)/C1=C/C=C/c1ccco1,inconclusive: 52.9%

# 2 of these compounds in a different format:
row	SMILES	inhibition
5	CNc1cc(Cl)c2nonc2c1[N+](=O)[O-]	inconclusive: 47.1%
6	O=C1NC(=O)N(Cc2ccco2)C(=O)/C1=C/C=C/c1ccco1	inconclusive: 52.9%
